# Laboratory results: PubChem BioAssay AID504784 (Drosophila RNAi Screening Center, 2011)
# Test: 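Genome-wide knock-down for genes giving too much or too little stored lipid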 (primary screen)
# Cells: Drosophila Kc167 embryonic cells
# Reagent: long dsRNA against Drosophila genes, about 250 ng dsRNA per well
# Timing: 4 days
# Treatment: cells fed 400 µM oleic acid bound to BSA
# Measurement: 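Cells imaged and segmented; ratio of lipid droplet area to nuclear area, log-transformed, then normalised as a B-score over the screen; higher means more stored lipid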
# Reading the numbers: droplet/nuclear area B-score: higher = more stored lipid (overstorage)
# The screen tested about 17,000 reagents; shown is a random part of those that have a named target and a result. 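Each column is one replicate's B-score; the combined score over replicates was not deposited, so single values may mislead.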 The numbers tell different reagents against one gene apart. Names joined by + are all predicted targets of the reagent. Further read-outs or replicates are left out here.
gene knocked down,reagent no.,"droplet/nuclear area B-score, replicate 1","droplet/nuclear area B-score, replicate 2"
corolla,1,-1.41,0.799
Pmvk,1,-1.75,0.819
trk,1,1.09,-0.11
UQCR-11L,1,-0.229,-0.175
slbo,1,0.124,2.14
Tsr1,1,-0.00509,-1.58
CG12817 + CG12420,1,-0.381,-0.00904
Atxn7,1,0.522,-1.49
Atxn7,2,-0.237,1.02
Gr22b,1,-0.0292,-1.52
esn,1,-0.0534,-0.802
esn,2,0.669,-0.666
pst,1,-0.408,
CG31683 + CG18858,1,-0.418,0.999
CG6675,1,-1.58,-0.32
Zip99C,1,-2.07,4.03
InR,1,0.0875,1.5
mTerf5,1,-0.977,-0.197
CG6867,1,0.576,0.97
CG9294,1,-0.256,0.509
CG7631,1,-0.22,1.91
CG10252,1,-0.0913,0.643
tst,1,0.352,-0.0283
bai,1,-1.5,0.619
CG30109 + CG30108,1,-0.32,0.0732
ppk21,1,-1.75,-0.566
Strip,1,-0.37,-0.0997
fmt,1,0.0405,0.167
Gr21a,1,-0.471,-2.27
Prip,1,-2.54,0.266
Fpgs1,1,-0.0271,-0.238
CG12182,1,-0.198,-3.51
Act79B,1,-0.824,-2.44

Continued; the last 8 above are carried over.
gene knocked down,reagent no.,"droplet/nuclear area B-score, replicate 1","droplet/nuclear area B-score, replicate 2"
ppk21,1,-1.75,-0.566
Strip,1,-0.37,-0.0997
fmt,1,0.0405,0.167
Gr21a,1,-0.471,-2.27
Prip,1,-2.54,0.266
Fpgs1,1,-0.0271,-0.238
CG12182,1,-0.198,-3.51
Act79B,1,-0.824,-2.44
cv-2,1,0.887,-0.0279
cv-2,2,0.0901,0.00369
RpL7A,1,1.69,3.09
CG8128,1,-0.01,1.76
Hsl,1,-0.648,-0.395
CG11251,1,1.57,0.316
pkm,1,0.00208,0.446
CG42457 (retired record) + cpo,1,-0.00469,-1.98
CG42457 (retired record) + cpo,2,0.803,-0.673
CG42457 (retired record) + cpo,3,1.45,1.2
CG42457 (retired record) + cpo,4,0.622,-0.604
CG42457 (retired record) + cpo,5,0.304,0.824
ko,1,-0.045,-0.832
CG4658,1,-0.255,0.584
CG9119,1,1.84,
CG32053,1,0.161,-0.106
CG17994,1,0.297,-1.56
obe,1,-0.0953,6.09
Gdap2,1,1.85,-0.018
Gdap2,2,0.54,0.68
CG30192,1,-0.304,1.53
betaTub60D,1,2.16,-0.354
betaTub60D,2,8.08,1.02
CG31861,1,-0.45,-1.1
Prosbeta6,1,-0.932,0.0464
CG17380,1,-0.726,0.178
NPF,1,-0.483,-0.0373
CG34124,1,0.276,0.751
CG16896,1,-1.13,0.00793
CG7322,1,0.604,0.0672
CG6337,1,-0.0252,-0.0171
CG6337,2,3.96,0.125
Coprox,1,0.067,0.208
CG16789,1,1.24,-0.0162
CG33490,1,0.0598,-0.526
CG9568,1,0.0511,2.82
CG13492,1,0.118,-2.2
Ho,1,3.84,-0.851
Or83a,1,0.738,-1.55
Sr-CI,1,2.51,0.292
Klp98A,1,-0.167,-0.401
Klp98A,2,-1.57,0.188
mRpS5,1,2.15,0.0762
128up,1,-0.357,-0.64
Dbx,1,-0.49,0.667
Dbx,2,0.0873,-0.0505
Dbx,3,1.51,0.49
SPoCk,1,0.0282,1.59
SPoCk,2,-3.18,-1.26
SPoCk,3,1.06,0.377
SPoCk,4,0.325,-0.328
